The target in experiment [1] is Trip 1/AD (TRIP1 homolog clone fused to the Gal4 activating domain) (human) (UniProt P62195). Put plainly: yeast two-hybrid in Y190, growth on Sc-His and β-galactosidase colony lift.
Experiment [2] addresses EC1/AD (ovine clone EC1, MAD2 homolog, fused to the Gal4 activating domain, vector pGAD10) (sheep). Described as above.
The next experiment deals with GST-EC1 (sheep). Put plainly: GST pull-down, SDS-PAGE and autoradiography.

Protein sequences, listed by entry. Tags and fused reporters are not part of them. Lines headed by an entry give the natural chain unless they say otherwise; changes in a name come on top. Residues count along the entry.
UniProt P62195: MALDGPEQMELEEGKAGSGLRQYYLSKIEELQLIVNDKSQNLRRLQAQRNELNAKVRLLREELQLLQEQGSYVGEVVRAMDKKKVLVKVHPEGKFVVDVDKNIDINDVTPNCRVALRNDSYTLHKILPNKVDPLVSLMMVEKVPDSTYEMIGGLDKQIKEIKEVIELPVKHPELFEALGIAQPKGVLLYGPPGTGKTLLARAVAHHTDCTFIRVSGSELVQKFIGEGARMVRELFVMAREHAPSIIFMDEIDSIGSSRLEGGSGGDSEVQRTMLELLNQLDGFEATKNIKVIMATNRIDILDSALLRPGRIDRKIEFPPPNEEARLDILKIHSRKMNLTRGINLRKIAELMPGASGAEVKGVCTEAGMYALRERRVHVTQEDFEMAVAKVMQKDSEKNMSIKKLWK
UniProt P04386: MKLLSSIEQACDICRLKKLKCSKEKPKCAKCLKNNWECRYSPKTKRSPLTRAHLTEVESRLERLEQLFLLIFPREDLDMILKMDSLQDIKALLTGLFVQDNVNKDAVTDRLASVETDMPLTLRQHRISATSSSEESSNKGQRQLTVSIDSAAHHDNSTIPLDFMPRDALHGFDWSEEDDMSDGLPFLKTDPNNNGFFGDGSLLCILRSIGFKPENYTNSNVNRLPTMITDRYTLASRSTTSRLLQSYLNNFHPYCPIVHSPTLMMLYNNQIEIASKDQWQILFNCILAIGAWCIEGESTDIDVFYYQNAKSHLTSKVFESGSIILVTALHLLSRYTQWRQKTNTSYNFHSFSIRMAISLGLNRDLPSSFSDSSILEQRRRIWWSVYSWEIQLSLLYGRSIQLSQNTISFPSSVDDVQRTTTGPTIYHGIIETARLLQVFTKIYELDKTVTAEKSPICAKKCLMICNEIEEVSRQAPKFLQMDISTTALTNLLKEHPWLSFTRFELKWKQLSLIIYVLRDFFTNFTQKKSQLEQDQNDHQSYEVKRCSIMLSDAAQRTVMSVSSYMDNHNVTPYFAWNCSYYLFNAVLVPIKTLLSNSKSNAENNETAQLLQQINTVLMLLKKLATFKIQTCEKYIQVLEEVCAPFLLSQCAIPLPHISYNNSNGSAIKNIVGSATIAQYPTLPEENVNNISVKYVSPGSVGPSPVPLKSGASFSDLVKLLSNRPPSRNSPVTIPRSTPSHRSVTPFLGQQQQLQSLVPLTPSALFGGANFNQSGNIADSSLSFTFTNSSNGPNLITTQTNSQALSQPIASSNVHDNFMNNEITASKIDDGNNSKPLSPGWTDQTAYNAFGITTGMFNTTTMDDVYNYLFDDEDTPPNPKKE
UniProt O08537, residues 46-530: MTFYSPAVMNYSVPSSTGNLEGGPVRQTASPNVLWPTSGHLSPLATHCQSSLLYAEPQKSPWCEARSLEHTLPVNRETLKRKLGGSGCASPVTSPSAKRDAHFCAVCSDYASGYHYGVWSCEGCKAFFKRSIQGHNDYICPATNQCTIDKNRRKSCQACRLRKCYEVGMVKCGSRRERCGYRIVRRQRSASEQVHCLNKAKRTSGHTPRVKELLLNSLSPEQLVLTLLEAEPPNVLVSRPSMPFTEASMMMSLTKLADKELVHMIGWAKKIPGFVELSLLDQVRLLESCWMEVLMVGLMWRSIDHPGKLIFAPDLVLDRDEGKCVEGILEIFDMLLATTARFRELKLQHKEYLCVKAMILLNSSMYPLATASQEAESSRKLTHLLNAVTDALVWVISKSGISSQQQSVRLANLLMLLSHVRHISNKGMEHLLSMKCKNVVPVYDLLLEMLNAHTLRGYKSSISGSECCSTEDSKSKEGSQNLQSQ

No constants are given. Whether binding was seen depends on the method and setting. For part of these data: In cells and extracts the contact can be indirect. Some results given as binding are weak or reduced against the parent protein; the word gives no strength.

Take “hERα/BD (human estrogen receptor alpha fused to the Gal4 DNA binding domain) (from UniProt P04386 1-147; P03372 1-595)”: in experiment [1], the binding entry is “binds”. On to “mERβ/BD (full-length mouse estrogen receptor beta fused to the Gal4 DNA binding domain, vector pGBT9) (from UniProt P04386 1-147; O08537 1-530)”, for which the binding result in experiment [2] is reported as “binds”. As to “[35S]mERβ (in vitro translated mouse estrogen receptor beta) (from UniProt O08537 46-530)”, the binding result with GST-EC1 (sheep) is given as “binds”.
